Experimental data from patent US11732027B2, “Protease-activated receptor-2 modulators” (Oasis Pharmaceuticals, LLC, priority 2015, dated 2023).
Not every detail of the peptide structures is certain; ends, links or a residue may be inferred.

Tested on: db/db mouse
Assay: Obese-diabetic (db/db) mouse model, daily SC treatment for 3 weeks
Format: in vivo
Settings: db/db mice
Description: FIGS. 1A to 1B. Male obese-diabetic (db/db) mice, 6-8 weeks of age were purchase from Charles River Labs. The db/db mouse is a […] animal which serves as a model for diabetes, obesity and dyslipidemia. Animals were randomized according to blood glucose and body weight on day −2 and were allowed to eat a normal chow diet ad libitum. Treatment was initiated from day 0 with mice receiving daily subcutaneous (SC) injections (5 mL/kg) at 7-10 AM. HbA1c was monitored on days 0, 7, 14 and 21. Mice (n=10) were treated daily with either 10 mg/kg N-palmitoylated-SEQ70 (PZ-235) or vehicle (“Veh”). […] HbA1c levels reflect long-term blood glucose levels. This unexpected result with PZ-235 would indicate that inhibition of PAR2 with a i3-loop derived pepducin may have a significant effect on reducing average glucose levels in the setting of severe diabetes in a relatively short period of time (e.g. 3 weeks of treatment).
FIG. 2. Diabetic mice from the experiment in FIGS. 1A and 1B had their morning blood glucose measured thrice weekly.
FIG. 3. Diabetic mice had their blood glucose profile monitored on days 1, 8 and 22.
FIGS. 4A to 4B. Insulin resistance is the key etiologic defect that defines metabolic syndrome in the context of Type 2 Diabetes Mellitus (T2DM). Obesity-induced insulin resistance is the dominant factor underlying both metabolic syndrome and T2DM. Obese-diabetic db/db mice quickly become severely insulin resistant as reflected by large increases in plasma insulin with concomitant increases in glucose. Plasma from whole blood was collected from the diabetic mice at the termination of the 3 week experiment.
FIGS. 5A to 5B. Diabetic mice had their plasma triglyceride levels measured at baseline and after 3 weeks of treatment with PZ-235 versus vehicle.
FIG. 6. Diabetic mice had their liver triglyceride levels measured after 3 weeks of treatment with PZ-235 versus vehicle. At termination of the 3 week experiment, livers were isolated from the diabetic mice, snap frozen and liver triglycerides measured.

[1] = plasma at termination of 3 week experiment

CCCCCCCCCCCCCCCC(=O)N[C@@H](CCCNC(=N)N)C(=O)N[C@@H](CO)C(=O)N[C@@H](CO)C(=O)N[C@@H](C)C(=O)N[C@@H](CCSC)C(=O)N[C@@H](CC(=O)O)C(=O)N[C@@H](CCC(=O)O)C(=O)N[C@@H](CC(N)=O)C(=O)N[C@@H](CO)C(=O)N[C@@H](CCC(=O)O)C(=O)N[C@@H](CCCCN)C(=O)N[C@@H](CCCCN)C(=O)N[C@@H](CCCNC(=N)N)C(=O)N[C@@H](CCCCN)C(=O)N[C@@H](CO)C(=O)N[C@@H](C)C(=O)N[C@H](C(=O)N[C@@H](CCCCN)C(N)=O)[C@@H](C)CC [SEQ ID NO 70]
drop in mean glycosylated hemoglobin (HbA1c) levels as compared to the vehicle-group (10 mg/kg SC daily, 3 week endpoint, P<0.001): 0.8%
mean HbA1c level (10 mg/kg SC daily, after 3 weeks): 6.6%
mean HbA1c level (10 mg/kg SC daily, day 0 (baseline)): 4.8%
morning blood glucose levels versus vehicle (10 mg/kg SC daily, measured thrice weekly): relative reduction
lowering of mean plasma triglycerides (TG) as compared to control animals (after 3 weeks of treatment, P<0.01): 0.7 mmol/L
lowering of liver triglycerides as compared to control animals (after 3 weeks of treatment, P<0.05): 15%
lowering of mean blood glucose as compared to controls (blood glucose profile on days 1, 8 and 22, first 6 h): 2 mmol/L
drop in mean plasma insulin as compared to control group [1]: 45%
increase in glucagon levels as compared to control group [1]: 22%
